Measurements taken from doi:10.1101/2024.05.08.593233.
Results are given in words; binding and its absence hold for the method and conditions named. In cells and extracts the contact can be indirect. Some binding calls cover weakened binding; strength is not graded here. Sequences can lack the tags named with a protein.

T1: 3×FLAG-Rubicon (1–566, 626–972) (human) (UniProt Q92622)
T1 sequence: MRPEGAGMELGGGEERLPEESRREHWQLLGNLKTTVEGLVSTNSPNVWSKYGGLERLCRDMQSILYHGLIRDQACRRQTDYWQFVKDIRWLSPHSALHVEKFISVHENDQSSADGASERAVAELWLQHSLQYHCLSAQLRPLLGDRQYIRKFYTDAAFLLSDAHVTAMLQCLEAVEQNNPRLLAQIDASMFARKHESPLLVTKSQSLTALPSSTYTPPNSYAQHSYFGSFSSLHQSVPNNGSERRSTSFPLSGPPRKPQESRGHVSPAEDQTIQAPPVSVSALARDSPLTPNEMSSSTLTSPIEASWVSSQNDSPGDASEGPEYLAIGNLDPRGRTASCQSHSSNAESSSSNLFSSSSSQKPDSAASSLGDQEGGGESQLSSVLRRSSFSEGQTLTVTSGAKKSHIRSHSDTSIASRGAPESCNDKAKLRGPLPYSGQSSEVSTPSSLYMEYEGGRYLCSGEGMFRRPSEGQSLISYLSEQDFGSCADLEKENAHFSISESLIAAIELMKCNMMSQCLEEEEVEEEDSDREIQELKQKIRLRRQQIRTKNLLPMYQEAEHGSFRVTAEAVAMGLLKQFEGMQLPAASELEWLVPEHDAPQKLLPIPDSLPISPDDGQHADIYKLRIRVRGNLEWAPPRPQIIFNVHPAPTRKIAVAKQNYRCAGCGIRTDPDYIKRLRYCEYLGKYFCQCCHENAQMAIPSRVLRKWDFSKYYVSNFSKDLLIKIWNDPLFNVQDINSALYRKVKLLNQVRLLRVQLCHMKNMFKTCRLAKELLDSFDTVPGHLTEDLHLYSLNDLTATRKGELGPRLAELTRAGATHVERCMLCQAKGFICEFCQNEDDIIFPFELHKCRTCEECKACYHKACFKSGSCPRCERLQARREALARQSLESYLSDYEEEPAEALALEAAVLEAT

T2: 3×FLAG-Rubicon (1–203, 448–972) (human) (UniProt Q92622)
T2 sequence: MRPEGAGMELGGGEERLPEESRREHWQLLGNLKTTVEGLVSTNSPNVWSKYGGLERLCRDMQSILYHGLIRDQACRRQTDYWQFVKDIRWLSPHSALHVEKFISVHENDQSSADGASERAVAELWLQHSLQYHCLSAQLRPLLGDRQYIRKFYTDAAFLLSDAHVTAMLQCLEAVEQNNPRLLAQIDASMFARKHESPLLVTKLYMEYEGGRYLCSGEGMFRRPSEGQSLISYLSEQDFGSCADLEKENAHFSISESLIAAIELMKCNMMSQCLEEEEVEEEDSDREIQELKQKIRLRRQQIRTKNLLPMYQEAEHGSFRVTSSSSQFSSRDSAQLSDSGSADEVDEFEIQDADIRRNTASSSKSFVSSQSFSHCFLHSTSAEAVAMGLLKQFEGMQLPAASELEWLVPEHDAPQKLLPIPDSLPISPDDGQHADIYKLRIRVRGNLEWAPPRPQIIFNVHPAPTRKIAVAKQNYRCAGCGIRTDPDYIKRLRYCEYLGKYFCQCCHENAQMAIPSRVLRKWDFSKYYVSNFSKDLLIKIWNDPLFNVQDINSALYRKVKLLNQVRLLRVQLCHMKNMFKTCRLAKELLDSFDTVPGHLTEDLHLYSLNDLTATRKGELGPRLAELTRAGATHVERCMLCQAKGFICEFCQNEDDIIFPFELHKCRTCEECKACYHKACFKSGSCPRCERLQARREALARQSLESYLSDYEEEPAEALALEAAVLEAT

T3: 3×FLAG-Rubicon (1–698) (human) (UniProt Q92622)
T3 sequence: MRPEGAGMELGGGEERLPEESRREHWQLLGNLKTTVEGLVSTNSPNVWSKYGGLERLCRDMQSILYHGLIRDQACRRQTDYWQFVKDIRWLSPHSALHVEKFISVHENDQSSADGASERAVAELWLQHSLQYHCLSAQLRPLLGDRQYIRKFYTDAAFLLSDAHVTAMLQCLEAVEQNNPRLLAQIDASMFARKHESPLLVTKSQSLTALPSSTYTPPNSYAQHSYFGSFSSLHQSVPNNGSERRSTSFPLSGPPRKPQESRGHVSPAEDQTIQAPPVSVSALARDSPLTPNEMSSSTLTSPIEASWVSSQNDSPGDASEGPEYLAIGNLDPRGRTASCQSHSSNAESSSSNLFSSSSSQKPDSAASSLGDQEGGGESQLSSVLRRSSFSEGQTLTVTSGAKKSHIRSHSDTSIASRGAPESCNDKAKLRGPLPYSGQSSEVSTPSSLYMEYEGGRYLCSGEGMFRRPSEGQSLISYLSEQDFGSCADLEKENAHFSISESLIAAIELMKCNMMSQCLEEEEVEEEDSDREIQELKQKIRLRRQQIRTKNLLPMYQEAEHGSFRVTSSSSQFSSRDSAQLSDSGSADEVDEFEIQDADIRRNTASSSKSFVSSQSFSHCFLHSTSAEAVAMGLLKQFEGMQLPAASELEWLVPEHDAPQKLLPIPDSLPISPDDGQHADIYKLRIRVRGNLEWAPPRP


Experiments:
Assay in all cases: co-IP
[1] = molecular target: T1, 3×FLAG-Rubicon (1–566, 626–972) (human)
[2] = molecular target: T2, 3×FLAG-Rubicon (1–203, 448–972) (human)
[3] = molecular target: T3, 3×FLAG-Rubicon (1–698) (human)

binding [1] | binding [2] | binding [3] | Binder
binds | binds | binds | endogenous WIPI2 (HEK293T) (protein, UniProt Q9Y4P8 1-454) MNLASQSGEAGAGQLLFANFNQDNTEVKGASRAAGLGRRAVVWSLAVGSKSGYKFFSLSSVDKLEQIYECTDTEDVCIVERLFSSSLVAIVSLKAPRKLKVCHFKKGTEICNYSYSNTILAVKLNRQRLIVCLEESLYIHNIRDMKVLHTIRETPPNPAGLCALSINNDNCYLAYPGSATIGEVQVFDTINLRAANMIPAHDSPLAALAFDASGTKLATASEKGTVIRVFSIPEGQKLFEFRRGVKRCVSICSLAFSMDGMFLSASSNTETVHIFKLETVKEKPPEEPTTWTGYFGKVLMASTSYLPSQVTEMFNQGRAFATVRLPFCGHKNICSLATIQKIPRLLVGAADGYLYMYNLDPQEGGECALMKQHRLDGSLETTNEILDSASHDCPLVTQTYGAAAGKGTYVPSSPTRLAYTDDLGAVGGACLEDEASALRLDEDSEHPPMILRTD
binds | binds | binds | HA-WIPI2d (protein, UniProt Q9Y4P8-2 1-425) MNLASQSGEAGAGQLLFANFNQDNTSLAVGSKSGYKFFSLSSVDKLEQIYECTDTEDVCIVERLFSSSLVAIVSLKAPRKLKVCHFKKGTEICNYSYSNTILAVKLNRQRLIVCLEESLYIHNIRDMKVLHTIRETPPNPAGLCALSINNDNCYLAYPGSATIGEVQVFDTINLRAANMIPAHDSPLAALAFDASGTKLATASEKGTVIRVFSIPEGQKLFEFRRGVKRCVSICSLAFSMDGMFLSASSNTETVHIFKLETVKEKPPEEPTTWTGYFGKVLMASTSYLPSQVTEMFNQGRAFATVRLPFCGHKNICSLATIQKIPRLLVGAADGYLYMYNLDPQEGGECALMKQHRLDGSLETTNEILDSASHDCPLVTQTYGAAAGKAYTDDLGAVGGACLEDEASALRLDEDSEHPPMILRTD
